PubChem BioAssay AID445 (National Center for Advancing Translational Sciences (NCATS), 2006)
Some of the results follow. The main result of the screen is listed elsewhere. These columns were measured beside it and carry no call. Most of these compounds were active or inconclusive in the main read-out, so they are no random draw. Words in brackets tell the shape of the fitted curve; partial curves, single points and poor fits give uncertain potencies.

Experiment: IkB Signaling
Settings: ABC-DLBCL IkBa-CBG/CBR dual luciferase ratio (green luciferase fused to IkBa over red control in OCI-Ly3 lymphoma cells), 4 h; measured here: control luc red channel unless noted
In short: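 Luminescence ratio of IκBα-fused green versus native red beetle luciferase in OCI-Ly3 cells, 4 h post-doxycycline with compound; red signal alone, scaled from basal (0%) to zero light (-100%), flagged nonspecific or cytotoxic effects.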

SMILES | AC50
Cc1ccc(NC(=O)c2c(NC(=O)c3ccco3)sc3c2CCC(C(C)(C)C)C3)c(C)c1 (stereo not given) | 3.16 µM [falling, partial curve]
COc1cc(OC)c(NC(=O)c2nnn(Cc3ccc(C)cc3)c2N)cc1Cl | 31.6 µM [falling, single point]
O=C(Cn1ncc2c3ccccc3n(Cc3ccc(Cl)cc3)c2c1=O)N1CCCCCC1 | 15.8 µM [falling, partial curve]
Cc1cc(C)c2oc(-c3cccc(NC(=O)c4ccc(Br)o4)c3)nc2c1 | 12.6 µM [falling, partial curve]
Cc1ccccc1Cn1cc(CCC(=O)NC(C)c2ccccc2)c2ccccc21 (stereo not given) | 1 µM [falling, partial curve, poor fit]
CCC(C)c1ccc(OCC(=O)Nc2cccc(-c3nc4ncccc4o3)c2)cc1 (stereo not given) | 12.6 µM [falling, partial curve]
COC(=O)c1c(C(=O)OC)c2oc3ccccc3n2c1Cl | 31.6 µM [falling, single point]
CC1=C(c2ccc(C)cc2)S(=O)(=O)N(Cc2ccc(C(=O)NCc3cccc(C)c3)cc2)C1=O | 10 µM [falling, partial curve, poor fit]
COc1cccc(-n2nnc3c(sc4nc(C)cc(C)c43)c2=O)c1 | 1 µM [rising, full curve]
O=C(Nc1sc2c(c1C(=O)Nc1ccccc1Cl)CCCC2)c1ccccc1F | 39.8 µM [falling, single point]
O=C(NCc1ccccc1Br)C1CCCN(C(=O)N2CCOc3ccccc32)C1 (stereo not given) | 0.0251 µM [falling, full curve]
COc1ccc(OCC(O)Cn2c(=N)n(Cc3ccccc3)c3ccccc32)cc1 (stereo not given) | 15.8 µM [falling, partial curve]
Cc1ccc(NC(=O)CSc2nc(C)c(Cc3ccccc3)c(=O)[nH]2)cc1 | 25.1 µM [falling, single point]
O=C(COc1ccc2c3c(c(=O)oc2c1)CCC3)NC1CCCCC1 | 6.31 µM [rising, single point]
Cn1c(SCC(=O)NCc2ccc3c(c2)OCO3)nnc1-c1cc2ccccc2cc1O | 25.1 µM [falling, partial curve]
O=C(Nc1ccccc1F)c1nc(S(=O)(=O)Cc2ccccc2F)ncc1Cl | 7.94 µM [falling, full curve]
CCN(C(=O)c1noc2c1COc1ccc(C)cc1-2)c1cccc(C)c1 | 0.251 µM [falling, full curve]
Clc1cccc(-n2ncc3c(NC4CCCCC4)ncnc32)c1 | 25.1 µM [falling, partial curve, poor fit]
O=C(COc1ccc(Cl)cc1)NCc1nnc(SCC(=O)NCc2ccc3c(c2)OCO3)o1 | 7.94 µM [falling, partial curve]
Cc1c(C(=O)Nc2ccc3c(c2)OCCO3)sc2nc(-c3ccccc3)cn12 | 3.16 µM [falling, full curve]

Single values from above.
Entry of Cc1ccc(NC(=O)CSc2nc(C)c(Cc3ccccc3)c(=O)[nH]2)cc1 under AC50: 25.1 µM [falling, single point]
Entry of Cn1c(SCC(=O)NCc2ccc3c(c2)OCO3)nnc1-c1cc2ccccc2cc1O under AC50: 25.1 µM [falling, partial curve]
Entry of O=C(NCc1ccccc1Br)C1CCCN(C(=O)N2CCOc3ccccc32)C1 (stereo not given) under AC50: 0.0251 µM [falling, full curve]

Following part

SMILES | AC50
CC(C)(C)OC(=O)N1CCC(c2c(C(=O)NCCN3CCC(Cc4ccccc4)CC3)cnn2-c2cccc(Cl)c2)CC1 | 39.8 µM [falling, single point]
O=C(NCc1ccc(Cl)cc1)C(=O)NCC(c1cccs1)S(=O)(=O)c1ccc(Cl)cc1 (stereo not given) | 7.94 µM [falling, partial curve]
CCOC(=O)C1CCN(C(=O)c2cc3ccc4cccnc4c3[nH]2)CC1 | 5.01 µM [falling, partial curve]
COc1ccccc1CNC(=O)c1ccccc1NC(=O)c1nsc2ccccc12 | 31.6 µM [falling, partial curve]
CCOC(=O)c1[nH]c2ccccc2c1NC(=O)c1ccccc1OCC | 20 µM [falling, single point]
O=C(Nc1ccc2c(c1)CCCN2C(=O)c1cccs1)c1cccc(C(F)(F)F)c1 | 31.6 µM [falling, partial curve]
CCCCN1CC(c2nc3ccccc3n2CCCCOc2ccccc2C)CC1=O (stereo not given) | 0.794 µM [falling, full curve]
CCCN(Cc1cccs1)C(=O)Nc1cc(C)ccc1OC | 15.8 µM [falling, partial curve]
O=C(c1ccc2c(c1)N(Cc1ccc(Cl)cc1)C(=O)c1ccccc1S2(=O)=O)N1CCCCCC1 | 15.8 µM [falling, partial curve]
C=CCn1c(SCC(=O)N2CCN(c3ccc(F)cc3)CC2)nnc1-c1cccs1 | 12.6 µM [falling, partial curve]
Cc1ccc(-c2onc(C)c2C)cc1S(=O)(=O)NCc1cccs1 | 39.8 µM [falling, single point]
CCc1nn(CC(=O)Nc2ccc(C)c(F)c2)c(=O)c2cc3cc(C)ccc3n12 | 0.794 µM [rising, full curve]
Cc1ccc(N2C(=O)C(CC(=O)Nc3ccc(F)cc3)N(CCC3=CCCCC3)C2=O)cc1 (stereo not given) | 25.1 µM [falling, partial curve]
CCOc1ccc(-c2nnc(SCC(=O)Nc3ccccc3C(F)(F)F)o2)cc1 | 0.00794 µM [rising, full curve, poor fit]
CCCNC(=O)c1ccc2c(c1)ncn2-c1ccccc1OC | 15.8 µM [falling, partial curve]
COc1ccc(C2C(C#N)=C(N)Oc3n[nH]c(C)c32)cc1Cn1nnc2ccccc21 (stereo not given) | 25.1 µM [falling, single point]
CCc1nc2ccccc2c(C(=O)OCC(=O)Nc2ccc(S(=O)(=O)N3CCOCC3)cc2)c1C | 15.8 µM [falling, partial curve]
Cc1cc(C)c(S(=O)(=O)Nc2ccc3oc4c(c3c2)CCCC4)cc1C | 12.6 µM [falling, partial curve]
CC(CNC(=O)CCn1c(=O)c2cccn2c2ccc(F)cc21)c1ccccc1 (stereo not given) | 7.94 µM [falling, partial curve]
COc1ccc(C(=O)c2ccc(N(C)C)cc2)c(OC)c1 | 0.398 µM [falling, partial curve]
